Results are given in words; binding and its absence hold for the method and conditions named. Binding can be weak; no strength is given.
B1: AtRFI2A (enzyme, UniProt O82239 1-358)
chain: MAGAKDSGCDDDLRIAGGCDPGKRGNPEDSSSPVEVSCSICLESVLDDGTRSKAKLQCGHQFHLDCIGSAFNMKGAMQCPNCRNVEKGQWLYANGSTRPFPEFSMEDWIPEEDLYGLSYPEMQYRVHWCPFGELSQAAASFEELEPATTTYHTEFHGHHAAAVNHSYLAYVGPGPAATPRTSDNNSTDDHPWNSHSNDHFHQLPVAPQYHHHSPSFSLPAAHVVDGEVDSSAARGLPYAHPFLFSHRSNQRSSPAINSYQGSSTQMREQHHAYNHQRQQHHANGPTLASPLISMTRRGLPPPPPPPPMPDQNVGFFIYPGGHHEPETDQIHAWERDWFPHFPVPSNHRTIPSLWHRHF

Biological target: BD-Mer1_(23-341) (Ustilago maydis)
Assay: two-hybrid

Molecule | binding
AtRFI2B (from UniProt F4J8E5) (enzyme) | binds
B1 | binds

Reference: paper doi:10.1101/827600
